Assay results as given in doi:10.1101/2025.09.03.673898.
No constants are given. Whether binding was seen depends on the method and setting. In cells and extracts the contact can be indirect. Some entries that bind do so weakly or less than the wild type. For some assays here: Sequences can lack the tags named with a protein.

Protein sequences, listed by entry. Tags and fused reporters are not part of them. Residues count along the entry.
UniProt C0LGT6, residues 25-1031: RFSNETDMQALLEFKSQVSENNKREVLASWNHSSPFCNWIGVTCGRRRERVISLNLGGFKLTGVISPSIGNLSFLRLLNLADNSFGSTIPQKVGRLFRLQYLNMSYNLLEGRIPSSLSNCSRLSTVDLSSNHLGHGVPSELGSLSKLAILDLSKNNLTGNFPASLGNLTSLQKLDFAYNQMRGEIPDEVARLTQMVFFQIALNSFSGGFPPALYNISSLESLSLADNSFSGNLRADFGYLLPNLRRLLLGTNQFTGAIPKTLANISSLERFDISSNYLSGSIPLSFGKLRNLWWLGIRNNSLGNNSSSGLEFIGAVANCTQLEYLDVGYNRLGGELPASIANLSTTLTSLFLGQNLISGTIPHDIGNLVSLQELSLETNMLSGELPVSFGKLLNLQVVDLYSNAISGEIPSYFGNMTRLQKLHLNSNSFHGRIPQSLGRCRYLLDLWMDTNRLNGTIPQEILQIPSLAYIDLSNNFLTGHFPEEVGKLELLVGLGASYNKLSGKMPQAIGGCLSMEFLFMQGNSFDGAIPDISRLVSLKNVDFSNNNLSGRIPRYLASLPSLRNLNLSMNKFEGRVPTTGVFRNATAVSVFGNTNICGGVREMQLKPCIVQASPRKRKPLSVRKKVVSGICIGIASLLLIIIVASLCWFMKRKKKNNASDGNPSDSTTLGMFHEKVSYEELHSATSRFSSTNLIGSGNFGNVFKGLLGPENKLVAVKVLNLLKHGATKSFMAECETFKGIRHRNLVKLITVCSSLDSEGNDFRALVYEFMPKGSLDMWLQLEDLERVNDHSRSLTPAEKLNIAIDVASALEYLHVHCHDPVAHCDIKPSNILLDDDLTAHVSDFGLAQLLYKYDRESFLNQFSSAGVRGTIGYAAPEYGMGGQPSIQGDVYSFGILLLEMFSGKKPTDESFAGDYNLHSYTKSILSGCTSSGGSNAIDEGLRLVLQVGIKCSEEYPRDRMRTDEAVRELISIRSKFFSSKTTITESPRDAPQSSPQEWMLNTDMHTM
UniProt Q9FL28, residues 24-1173: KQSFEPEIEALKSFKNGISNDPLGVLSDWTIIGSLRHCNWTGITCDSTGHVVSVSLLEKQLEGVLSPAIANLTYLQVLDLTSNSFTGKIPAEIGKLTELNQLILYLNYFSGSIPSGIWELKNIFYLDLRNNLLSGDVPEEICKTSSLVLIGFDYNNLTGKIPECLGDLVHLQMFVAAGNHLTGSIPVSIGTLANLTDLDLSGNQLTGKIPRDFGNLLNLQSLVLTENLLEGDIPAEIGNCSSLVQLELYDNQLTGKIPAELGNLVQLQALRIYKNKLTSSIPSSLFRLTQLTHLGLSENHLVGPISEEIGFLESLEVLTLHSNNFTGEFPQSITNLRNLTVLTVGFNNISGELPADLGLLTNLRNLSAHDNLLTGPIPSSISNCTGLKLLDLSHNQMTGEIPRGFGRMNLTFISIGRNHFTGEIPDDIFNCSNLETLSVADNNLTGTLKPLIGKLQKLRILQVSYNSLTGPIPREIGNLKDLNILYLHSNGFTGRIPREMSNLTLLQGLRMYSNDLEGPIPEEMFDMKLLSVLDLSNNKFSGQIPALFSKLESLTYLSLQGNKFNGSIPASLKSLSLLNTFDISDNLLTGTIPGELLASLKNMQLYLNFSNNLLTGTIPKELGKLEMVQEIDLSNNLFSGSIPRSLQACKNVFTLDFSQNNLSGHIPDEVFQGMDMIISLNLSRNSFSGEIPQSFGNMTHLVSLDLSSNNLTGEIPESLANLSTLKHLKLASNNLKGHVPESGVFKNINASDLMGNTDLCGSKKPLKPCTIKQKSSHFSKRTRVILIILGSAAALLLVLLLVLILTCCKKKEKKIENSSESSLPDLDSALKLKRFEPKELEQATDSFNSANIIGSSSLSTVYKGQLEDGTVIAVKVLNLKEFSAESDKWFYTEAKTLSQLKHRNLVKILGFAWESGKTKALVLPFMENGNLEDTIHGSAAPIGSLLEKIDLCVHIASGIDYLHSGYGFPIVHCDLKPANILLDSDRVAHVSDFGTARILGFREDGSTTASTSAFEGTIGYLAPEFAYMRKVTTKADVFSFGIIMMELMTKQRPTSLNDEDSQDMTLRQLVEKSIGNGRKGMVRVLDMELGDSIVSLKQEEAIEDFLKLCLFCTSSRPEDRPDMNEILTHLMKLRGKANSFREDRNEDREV
UniProt Q8H186: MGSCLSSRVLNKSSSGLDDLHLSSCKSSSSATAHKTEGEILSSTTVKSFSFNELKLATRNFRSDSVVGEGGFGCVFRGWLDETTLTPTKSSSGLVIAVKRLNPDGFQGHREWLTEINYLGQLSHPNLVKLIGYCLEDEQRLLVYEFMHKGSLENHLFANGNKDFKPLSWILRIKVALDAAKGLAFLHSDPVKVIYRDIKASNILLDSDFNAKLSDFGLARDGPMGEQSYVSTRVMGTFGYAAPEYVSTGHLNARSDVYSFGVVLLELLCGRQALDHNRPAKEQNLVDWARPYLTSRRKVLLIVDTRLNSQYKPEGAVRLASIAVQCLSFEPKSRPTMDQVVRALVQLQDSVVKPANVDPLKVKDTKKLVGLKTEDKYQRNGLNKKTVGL

What was measured:
[1] = target: T1, RPM1-interacting protein 4 (RIN4), expressed in N. benthamiana (Arabidopsis) (UniProt Q8GYN5); assay: co-IP
T1 sequence: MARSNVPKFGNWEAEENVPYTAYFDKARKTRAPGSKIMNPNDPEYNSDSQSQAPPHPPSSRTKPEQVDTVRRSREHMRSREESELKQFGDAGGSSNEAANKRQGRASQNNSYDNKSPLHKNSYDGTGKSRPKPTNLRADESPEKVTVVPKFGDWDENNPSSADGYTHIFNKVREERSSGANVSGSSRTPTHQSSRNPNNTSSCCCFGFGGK

[2] = target: T2, RPM1-interacting protein 4 (RIN4), BiFC fusion (Arabidopsis) (UniProt Q8GYN5); assay: split reporter
T2 sequence: T1 sequence

[3] = target: T3, RPM1-interacting protein 4 (RIN4), in A. thaliana plants (A. thaliana) (UniProt Q8GYN5); assay: co-IP
T3 sequence: T1 sequence

[4] = target: EFR, expressed in N. benthamiana (UniProt C0LGT6); assay: co-IP
[5] = target: flagellin sensing 2 (FLS2), expressed in N. benthamiana (UniProt Q9FL28); assay: co-IP

For “PBS1-like 1 (PBL1), expressed in N. benthamiana (from UniProt Q8H186 1-389) (enzyme)”, the binding [1] was “binds weakly”.

“PBS1-like 1 (PBL1), BiFC fusion (from UniProt Q8H186 1-389) (enzyme)” was tested, and the binding [2] was “binds”.

In the case of “PBL1-HA in 35S::PBL1-HA transgenic plants (from UniProt Q8H186 1-389) (enzyme)”, the binding [3] is reported as “binds”.

B1: RPM1-interacting protein 4 (RIN4), expressed in N. benthamiana (protein, UniProt Q8GYN5 1-211)
chain: T1 sequence
For B1, the binding [4] was “binds” and the binding [5] was “binds”.
